In the supplement of paper PMC7666118:
This is one part of the list.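 The calls were made as follows: active = dose-dependent thermal stabilisation significant by F-test of dose-response against flat model at 10% FDR; inactive = not significant.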

Chains of the proteins cited; added tags and fusions are not shown. Lines headed by an entry give the natural chain unless they say otherwise; changes in a name come on top.
UniProt Q9Y2U5: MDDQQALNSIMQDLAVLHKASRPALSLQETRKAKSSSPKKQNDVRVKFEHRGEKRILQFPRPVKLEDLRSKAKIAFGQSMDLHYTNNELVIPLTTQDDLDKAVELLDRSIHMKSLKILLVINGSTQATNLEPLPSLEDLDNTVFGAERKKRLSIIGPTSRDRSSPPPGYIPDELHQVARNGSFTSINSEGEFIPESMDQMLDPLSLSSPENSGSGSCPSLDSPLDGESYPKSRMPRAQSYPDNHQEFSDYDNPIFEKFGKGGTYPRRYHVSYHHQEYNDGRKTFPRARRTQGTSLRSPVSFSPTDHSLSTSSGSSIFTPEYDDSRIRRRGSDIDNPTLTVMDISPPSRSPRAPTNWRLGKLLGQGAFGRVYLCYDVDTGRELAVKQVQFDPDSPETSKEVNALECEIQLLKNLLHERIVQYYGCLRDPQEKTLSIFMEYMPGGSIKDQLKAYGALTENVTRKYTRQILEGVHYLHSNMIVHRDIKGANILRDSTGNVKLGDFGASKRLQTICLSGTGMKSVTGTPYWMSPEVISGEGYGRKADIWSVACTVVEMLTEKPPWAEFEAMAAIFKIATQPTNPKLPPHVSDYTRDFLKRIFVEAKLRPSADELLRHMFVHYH
UniProt Q9BX40: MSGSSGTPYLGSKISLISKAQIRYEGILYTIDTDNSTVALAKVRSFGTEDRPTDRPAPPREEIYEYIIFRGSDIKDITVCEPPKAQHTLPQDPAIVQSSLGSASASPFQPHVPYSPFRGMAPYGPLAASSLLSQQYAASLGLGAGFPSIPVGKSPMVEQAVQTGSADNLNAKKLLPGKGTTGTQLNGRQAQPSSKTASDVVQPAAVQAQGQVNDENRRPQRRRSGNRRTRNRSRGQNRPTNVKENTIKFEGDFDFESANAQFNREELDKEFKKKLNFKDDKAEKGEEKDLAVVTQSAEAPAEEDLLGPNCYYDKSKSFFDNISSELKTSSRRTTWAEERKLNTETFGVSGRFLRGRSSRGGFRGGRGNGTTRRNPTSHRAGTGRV
UniProt Q9H000: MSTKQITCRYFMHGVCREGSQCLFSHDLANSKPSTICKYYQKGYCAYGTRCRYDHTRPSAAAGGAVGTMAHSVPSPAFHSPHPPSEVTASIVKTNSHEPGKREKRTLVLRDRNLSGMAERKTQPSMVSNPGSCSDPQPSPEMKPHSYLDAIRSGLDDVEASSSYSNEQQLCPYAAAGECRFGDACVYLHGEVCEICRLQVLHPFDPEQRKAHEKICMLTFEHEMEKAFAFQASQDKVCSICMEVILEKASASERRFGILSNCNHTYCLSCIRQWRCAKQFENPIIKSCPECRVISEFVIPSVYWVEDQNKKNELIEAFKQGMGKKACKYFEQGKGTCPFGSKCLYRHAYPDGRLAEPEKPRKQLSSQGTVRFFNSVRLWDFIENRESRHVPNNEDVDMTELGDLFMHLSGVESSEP
UniProt Q13496: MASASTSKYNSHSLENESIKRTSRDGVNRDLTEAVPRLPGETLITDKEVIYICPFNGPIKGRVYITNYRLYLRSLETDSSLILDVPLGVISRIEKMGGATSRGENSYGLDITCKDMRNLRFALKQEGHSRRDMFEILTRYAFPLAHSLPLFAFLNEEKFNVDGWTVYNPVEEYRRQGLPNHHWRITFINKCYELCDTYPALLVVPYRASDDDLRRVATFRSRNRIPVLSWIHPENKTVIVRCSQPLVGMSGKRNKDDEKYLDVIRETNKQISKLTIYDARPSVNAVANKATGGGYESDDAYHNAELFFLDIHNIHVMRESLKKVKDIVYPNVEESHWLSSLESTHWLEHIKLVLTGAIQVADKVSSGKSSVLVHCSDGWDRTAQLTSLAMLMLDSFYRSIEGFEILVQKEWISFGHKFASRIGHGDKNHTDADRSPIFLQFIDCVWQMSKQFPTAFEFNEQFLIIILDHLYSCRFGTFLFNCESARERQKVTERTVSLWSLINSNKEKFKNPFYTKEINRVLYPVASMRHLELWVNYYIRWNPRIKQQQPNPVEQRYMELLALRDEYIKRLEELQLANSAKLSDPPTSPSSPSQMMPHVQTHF
UniProt Q9BWT6: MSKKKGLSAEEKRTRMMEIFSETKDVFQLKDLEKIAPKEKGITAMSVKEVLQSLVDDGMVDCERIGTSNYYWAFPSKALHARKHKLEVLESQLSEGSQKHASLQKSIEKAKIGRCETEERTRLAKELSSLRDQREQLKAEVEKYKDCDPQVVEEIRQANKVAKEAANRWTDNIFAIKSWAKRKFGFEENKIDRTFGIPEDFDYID
UniProt O15116: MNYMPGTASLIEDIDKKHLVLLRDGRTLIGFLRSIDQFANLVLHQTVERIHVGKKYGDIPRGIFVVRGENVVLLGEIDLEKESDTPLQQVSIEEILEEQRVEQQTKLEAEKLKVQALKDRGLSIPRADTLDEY
UniProt Q9Y4Z0: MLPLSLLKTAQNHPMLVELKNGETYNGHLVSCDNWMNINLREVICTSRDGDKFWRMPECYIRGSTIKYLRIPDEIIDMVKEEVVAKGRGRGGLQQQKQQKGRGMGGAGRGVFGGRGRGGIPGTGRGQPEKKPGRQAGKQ
UniProt Q9Y608: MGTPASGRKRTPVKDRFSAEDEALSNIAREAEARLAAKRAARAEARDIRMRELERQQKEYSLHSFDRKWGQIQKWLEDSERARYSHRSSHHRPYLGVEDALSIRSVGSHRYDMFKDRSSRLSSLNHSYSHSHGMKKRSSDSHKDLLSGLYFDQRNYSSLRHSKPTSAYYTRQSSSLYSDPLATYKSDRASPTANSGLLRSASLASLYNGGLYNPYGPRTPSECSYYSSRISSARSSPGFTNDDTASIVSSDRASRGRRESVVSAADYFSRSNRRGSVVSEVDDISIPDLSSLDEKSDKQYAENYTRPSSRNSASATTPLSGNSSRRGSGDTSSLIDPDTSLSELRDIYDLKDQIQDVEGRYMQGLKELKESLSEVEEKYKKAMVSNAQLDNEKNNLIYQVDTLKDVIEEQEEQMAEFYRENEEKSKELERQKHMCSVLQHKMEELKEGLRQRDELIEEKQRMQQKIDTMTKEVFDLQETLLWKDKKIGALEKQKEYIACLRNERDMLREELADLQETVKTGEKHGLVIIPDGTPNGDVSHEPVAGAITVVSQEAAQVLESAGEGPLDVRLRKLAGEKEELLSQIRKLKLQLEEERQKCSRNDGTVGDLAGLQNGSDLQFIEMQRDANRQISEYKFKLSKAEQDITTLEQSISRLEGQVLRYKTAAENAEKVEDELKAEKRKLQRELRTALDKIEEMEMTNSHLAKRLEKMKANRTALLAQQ
UniProt Q13615: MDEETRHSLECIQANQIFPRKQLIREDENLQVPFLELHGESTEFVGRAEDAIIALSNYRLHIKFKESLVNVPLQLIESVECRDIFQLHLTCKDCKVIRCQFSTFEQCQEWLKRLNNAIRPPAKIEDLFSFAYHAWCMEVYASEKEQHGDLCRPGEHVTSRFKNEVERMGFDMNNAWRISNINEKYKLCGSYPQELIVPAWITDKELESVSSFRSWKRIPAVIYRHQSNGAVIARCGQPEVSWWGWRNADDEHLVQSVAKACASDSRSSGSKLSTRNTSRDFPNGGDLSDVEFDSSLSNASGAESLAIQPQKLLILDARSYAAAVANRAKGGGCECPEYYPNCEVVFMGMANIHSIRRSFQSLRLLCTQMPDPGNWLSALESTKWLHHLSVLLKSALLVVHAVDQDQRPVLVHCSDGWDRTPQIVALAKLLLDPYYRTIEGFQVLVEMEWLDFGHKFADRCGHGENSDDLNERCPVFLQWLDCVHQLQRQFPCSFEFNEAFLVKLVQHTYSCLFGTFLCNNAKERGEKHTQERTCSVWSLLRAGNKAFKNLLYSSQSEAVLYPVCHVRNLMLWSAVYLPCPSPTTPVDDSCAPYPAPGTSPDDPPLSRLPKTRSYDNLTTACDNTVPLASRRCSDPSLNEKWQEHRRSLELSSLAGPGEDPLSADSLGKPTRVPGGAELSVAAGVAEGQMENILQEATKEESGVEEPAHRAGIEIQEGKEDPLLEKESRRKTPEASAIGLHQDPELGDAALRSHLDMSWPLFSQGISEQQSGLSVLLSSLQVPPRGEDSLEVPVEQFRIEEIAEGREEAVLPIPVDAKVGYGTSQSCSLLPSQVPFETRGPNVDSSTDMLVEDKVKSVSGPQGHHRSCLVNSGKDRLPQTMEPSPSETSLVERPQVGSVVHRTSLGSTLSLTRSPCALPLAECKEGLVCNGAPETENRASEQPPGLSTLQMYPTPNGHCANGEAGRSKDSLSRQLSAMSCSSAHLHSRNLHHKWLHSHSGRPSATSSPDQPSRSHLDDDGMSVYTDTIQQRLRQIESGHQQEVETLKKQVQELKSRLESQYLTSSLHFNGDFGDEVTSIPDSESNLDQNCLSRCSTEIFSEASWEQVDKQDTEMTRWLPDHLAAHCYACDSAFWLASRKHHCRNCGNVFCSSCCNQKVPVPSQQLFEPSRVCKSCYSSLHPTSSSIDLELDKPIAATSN
UniProt Q9HCC0: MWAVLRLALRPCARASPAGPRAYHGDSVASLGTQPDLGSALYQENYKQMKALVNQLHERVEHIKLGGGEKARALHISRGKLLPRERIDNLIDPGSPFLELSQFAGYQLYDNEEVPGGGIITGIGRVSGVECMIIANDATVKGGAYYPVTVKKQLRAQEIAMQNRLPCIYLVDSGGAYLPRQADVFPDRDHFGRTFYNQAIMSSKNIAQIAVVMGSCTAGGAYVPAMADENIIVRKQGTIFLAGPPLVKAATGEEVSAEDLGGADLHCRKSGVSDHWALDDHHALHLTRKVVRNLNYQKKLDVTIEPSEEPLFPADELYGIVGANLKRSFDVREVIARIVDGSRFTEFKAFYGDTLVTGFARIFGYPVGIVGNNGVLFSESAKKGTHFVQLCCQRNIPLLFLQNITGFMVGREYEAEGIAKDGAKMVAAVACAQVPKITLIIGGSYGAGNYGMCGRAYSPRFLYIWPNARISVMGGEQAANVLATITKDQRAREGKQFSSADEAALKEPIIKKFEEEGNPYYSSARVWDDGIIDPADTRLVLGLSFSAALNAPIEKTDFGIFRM
UniProt Q9ULC4: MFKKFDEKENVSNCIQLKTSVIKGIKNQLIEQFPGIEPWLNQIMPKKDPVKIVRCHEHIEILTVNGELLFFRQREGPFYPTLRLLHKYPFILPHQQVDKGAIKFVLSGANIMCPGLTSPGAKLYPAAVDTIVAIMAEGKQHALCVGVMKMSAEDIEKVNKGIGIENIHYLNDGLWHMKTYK
UniProt Q9NZW5: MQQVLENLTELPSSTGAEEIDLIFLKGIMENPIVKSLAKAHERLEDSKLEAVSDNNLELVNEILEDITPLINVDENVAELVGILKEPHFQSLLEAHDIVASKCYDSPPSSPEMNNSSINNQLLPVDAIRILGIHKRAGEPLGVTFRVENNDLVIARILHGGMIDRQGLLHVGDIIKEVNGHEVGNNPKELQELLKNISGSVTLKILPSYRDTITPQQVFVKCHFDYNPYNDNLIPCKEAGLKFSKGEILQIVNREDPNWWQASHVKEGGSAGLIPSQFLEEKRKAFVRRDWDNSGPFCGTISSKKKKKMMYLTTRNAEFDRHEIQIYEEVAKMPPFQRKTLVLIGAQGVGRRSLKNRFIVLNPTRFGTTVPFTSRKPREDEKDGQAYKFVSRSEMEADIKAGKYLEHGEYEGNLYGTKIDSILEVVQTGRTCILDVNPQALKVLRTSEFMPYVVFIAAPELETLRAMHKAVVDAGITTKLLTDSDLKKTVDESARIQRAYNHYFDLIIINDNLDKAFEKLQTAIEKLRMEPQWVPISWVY
UniProt Q96GW9: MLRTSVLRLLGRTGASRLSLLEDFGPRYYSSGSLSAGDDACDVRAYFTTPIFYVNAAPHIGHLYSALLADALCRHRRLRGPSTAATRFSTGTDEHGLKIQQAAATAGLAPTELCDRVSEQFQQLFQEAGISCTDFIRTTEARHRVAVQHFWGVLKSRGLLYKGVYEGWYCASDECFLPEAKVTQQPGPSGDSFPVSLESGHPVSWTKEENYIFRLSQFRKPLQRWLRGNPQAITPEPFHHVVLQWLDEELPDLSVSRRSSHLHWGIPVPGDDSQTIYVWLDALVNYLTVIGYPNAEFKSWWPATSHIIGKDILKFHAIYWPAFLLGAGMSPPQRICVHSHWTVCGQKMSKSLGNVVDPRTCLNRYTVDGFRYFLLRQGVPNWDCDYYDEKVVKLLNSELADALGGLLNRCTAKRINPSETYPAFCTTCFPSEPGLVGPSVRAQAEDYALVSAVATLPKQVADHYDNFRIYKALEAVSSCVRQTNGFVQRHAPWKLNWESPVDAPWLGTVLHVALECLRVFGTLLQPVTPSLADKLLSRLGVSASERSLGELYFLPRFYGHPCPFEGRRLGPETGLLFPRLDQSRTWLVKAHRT
UniProt P25325: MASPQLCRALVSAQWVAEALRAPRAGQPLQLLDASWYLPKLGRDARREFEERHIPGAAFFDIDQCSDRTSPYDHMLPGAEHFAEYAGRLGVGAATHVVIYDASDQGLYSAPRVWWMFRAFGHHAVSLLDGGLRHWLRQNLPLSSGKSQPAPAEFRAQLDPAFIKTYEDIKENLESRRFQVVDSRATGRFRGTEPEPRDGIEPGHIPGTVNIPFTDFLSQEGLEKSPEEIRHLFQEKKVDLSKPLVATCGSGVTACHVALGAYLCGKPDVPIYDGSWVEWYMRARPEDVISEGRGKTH

Compound: Nc1nc2c(ncn2[C@@H]2O[C@H](COP(=O)(O)OP(=O)(O)OP(=O)(O)O)[C@@H](O)[C@H]2O)c(=O)[nH]1
Test: dose-dependent thermal stabilisation call (2D-TPP, DLPTP, 10% FDR) (binary (1 = stabilised)); higher = stabilised by the compound
Settings: system: Jurkat gel-filtered lysate; concentration range 1-500 µM
Method: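 2D thermal proteome profiling in gel-filtered Jurkat E6.1 lysate (2 mg/ml) treated with NaGTP (0, 1, 10, 100, 500 uM) for 10 min at room temperature, then heated 3 min at one of 12 temperatures (42-63.9 C). Soluble protein was quantified by TMT10 MS. The value is the DLPTP call of the paper: dose-dependent thermal stabilisation over all temperatures at 10% FDR (F-test of a dose-response against a flat model); one experiment, one call per tested protein.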

Target | dose-dependent thermal stabilisation call
MOCS2 (UniProt O96007) | inactive: 0
MAP3K7 (UniProt O43318) | inactive: 0
MAP3K2 (UniProt Q9Y2U5) | active: 1
LSM14B (UniProt Q9BX40) | inactive: 0
MKRN2 (UniProt Q9H000) | inactive: 0
LYPLA1 (UniProt O75608) | inactive: 0
MTM1 (UniProt Q13496) | inactive: 0
MED1 (UniProt Q15648) | inactive: 0
LRRC57 (UniProt Q8N9N7) | inactive: 0
MPG (UniProt P29372) | inactive: 0
MPLKIP (UniProt Q8TAP9) | inactive: 0
MND1 (UniProt Q9BWT6) | inactive: 0
MED22 (UniProt Q15528) | inactive: 0
MAP2K6 (UniProt P52564) | active: 1
LSM1 (UniProt O15116) | inactive: 0
MADD (UniProt Q8WXG6) | inactive: 0
MTMR1 (UniProt Q13613) | inactive: 0
LZTS1 (UniProt Q9Y250) | inactive: 0
MRPS28 (UniProt Q9Y2Q9) | inactive: 0
LSM4 (UniProt Q9Y4Z0) | inactive: 0

A different layout for some results above:
Target,dose-dependent thermal stabilisation call
LSM14B (UniProt Q9BX40),inactive: 0
MKRN2 (UniProt Q9H000),inactive: 0

Additional entries follow:

Target | dose-dependent thermal stabilisation call
MOB3A (UniProt Q96BX8) | inactive: 0
METAP1 (UniProt P53582) | inactive: 0
MRPS31 (UniProt Q92665) | inactive: 0
LRRFIP2 (UniProt Q9Y608) | inactive: 0
MRPS23 (UniProt Q9Y3D9) | inactive: 0
MTMR3 (UniProt Q13615) | inactive: 0
MTMR12 (UniProt Q9C0I1) | inactive: 0
MON2 (UniProt Q7Z3U7) | active: 1
MTMR6 (UniProt Q9Y217) | active: 1
MED4 (UniProt Q9NPJ6) | inactive: 0
MCCC2 (UniProt Q9HCC0) | inactive: 0
MTPN (UniProt P58546) | inactive: 0
MCTS1 (UniProt Q9ULC4) | inactive: 0
MED13L (UniProt Q71F56) | inactive: 0
MPP6 (UniProt Q9NZW5) | inactive: 0
MARS2 (UniProt Q96GW9) | inactive: 0
MKNK1 (UniProt Q9BUB5) | inactive: 0
MPST (UniProt P25325) | inactive: 0
MNT (UniProt Q99583) | inactive: 0
MYO9B (UniProt Q13459) | inactive: 0
